Reference: the supplement of paper PMC10849652
Some of the results follow.

By UniProt entry, the sequences of proteins in these tests, tags left out. Where a name states a change or a piece, a line headed by the entry shows the natural chain unless it says otherwise.
UniProt P25325: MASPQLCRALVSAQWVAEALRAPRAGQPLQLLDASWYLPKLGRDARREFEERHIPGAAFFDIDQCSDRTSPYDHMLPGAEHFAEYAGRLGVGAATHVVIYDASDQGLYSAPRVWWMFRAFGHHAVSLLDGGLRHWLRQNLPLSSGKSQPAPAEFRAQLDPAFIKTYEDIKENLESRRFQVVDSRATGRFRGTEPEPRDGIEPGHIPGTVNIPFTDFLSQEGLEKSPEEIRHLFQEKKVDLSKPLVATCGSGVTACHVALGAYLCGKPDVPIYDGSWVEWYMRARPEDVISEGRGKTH
UniProt O75352: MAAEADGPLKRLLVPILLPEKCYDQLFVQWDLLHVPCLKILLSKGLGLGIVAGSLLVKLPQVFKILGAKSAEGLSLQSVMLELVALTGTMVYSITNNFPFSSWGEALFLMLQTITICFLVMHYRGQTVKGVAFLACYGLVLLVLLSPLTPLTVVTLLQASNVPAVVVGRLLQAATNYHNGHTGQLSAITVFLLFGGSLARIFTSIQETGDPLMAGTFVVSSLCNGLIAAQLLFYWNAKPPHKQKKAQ
UniProt Q7RTP6, whole entry, looked up: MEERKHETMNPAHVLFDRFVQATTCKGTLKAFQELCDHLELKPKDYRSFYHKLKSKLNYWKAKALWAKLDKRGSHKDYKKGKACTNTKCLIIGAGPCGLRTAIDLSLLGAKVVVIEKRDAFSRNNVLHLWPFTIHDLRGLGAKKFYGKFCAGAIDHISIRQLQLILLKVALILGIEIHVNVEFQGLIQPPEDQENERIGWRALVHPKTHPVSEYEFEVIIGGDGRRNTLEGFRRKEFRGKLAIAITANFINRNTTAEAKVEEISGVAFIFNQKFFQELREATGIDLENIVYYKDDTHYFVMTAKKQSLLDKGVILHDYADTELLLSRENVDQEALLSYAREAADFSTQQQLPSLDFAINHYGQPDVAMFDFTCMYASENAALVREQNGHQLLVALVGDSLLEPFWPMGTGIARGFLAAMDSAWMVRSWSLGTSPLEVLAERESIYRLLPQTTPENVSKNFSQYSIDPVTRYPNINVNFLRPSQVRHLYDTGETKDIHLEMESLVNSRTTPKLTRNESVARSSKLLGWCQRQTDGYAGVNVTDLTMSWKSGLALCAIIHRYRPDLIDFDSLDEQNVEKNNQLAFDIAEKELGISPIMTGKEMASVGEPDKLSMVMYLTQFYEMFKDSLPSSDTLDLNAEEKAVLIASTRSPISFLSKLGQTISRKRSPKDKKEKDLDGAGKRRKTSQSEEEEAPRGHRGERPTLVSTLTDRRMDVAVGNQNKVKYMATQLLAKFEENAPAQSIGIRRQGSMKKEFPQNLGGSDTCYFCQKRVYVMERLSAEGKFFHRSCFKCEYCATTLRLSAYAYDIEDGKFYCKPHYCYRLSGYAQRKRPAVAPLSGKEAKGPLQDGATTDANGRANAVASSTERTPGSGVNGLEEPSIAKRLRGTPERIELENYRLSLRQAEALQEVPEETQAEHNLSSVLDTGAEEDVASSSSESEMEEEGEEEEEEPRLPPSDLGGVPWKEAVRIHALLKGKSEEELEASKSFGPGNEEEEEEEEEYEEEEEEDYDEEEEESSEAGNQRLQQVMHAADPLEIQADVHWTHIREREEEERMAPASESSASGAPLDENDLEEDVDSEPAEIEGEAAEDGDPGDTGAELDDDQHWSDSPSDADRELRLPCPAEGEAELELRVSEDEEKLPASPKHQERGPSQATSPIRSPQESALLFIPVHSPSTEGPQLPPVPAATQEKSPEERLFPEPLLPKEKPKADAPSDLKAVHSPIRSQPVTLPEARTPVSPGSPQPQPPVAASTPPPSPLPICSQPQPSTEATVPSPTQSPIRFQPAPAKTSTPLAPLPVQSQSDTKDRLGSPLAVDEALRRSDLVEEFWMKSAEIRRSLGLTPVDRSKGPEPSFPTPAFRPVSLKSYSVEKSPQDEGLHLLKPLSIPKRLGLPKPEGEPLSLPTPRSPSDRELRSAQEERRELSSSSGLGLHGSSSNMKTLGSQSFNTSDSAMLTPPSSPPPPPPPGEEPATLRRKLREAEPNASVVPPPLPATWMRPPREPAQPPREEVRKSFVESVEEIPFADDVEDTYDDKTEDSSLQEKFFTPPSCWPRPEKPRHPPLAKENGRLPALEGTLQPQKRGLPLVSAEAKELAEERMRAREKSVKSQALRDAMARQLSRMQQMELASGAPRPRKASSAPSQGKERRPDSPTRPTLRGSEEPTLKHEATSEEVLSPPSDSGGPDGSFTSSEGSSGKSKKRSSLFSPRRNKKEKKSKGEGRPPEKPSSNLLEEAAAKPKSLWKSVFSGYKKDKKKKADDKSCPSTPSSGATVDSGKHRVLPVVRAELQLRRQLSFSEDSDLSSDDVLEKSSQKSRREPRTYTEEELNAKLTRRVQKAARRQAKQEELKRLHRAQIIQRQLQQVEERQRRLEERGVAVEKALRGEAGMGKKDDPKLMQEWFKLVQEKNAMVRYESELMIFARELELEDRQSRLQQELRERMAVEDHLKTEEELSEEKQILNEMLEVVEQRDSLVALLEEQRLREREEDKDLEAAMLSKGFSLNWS
UniProt Q9Y5U8: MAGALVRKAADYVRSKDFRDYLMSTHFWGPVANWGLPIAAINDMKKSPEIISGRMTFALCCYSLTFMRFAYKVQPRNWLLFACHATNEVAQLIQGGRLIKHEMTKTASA
UniProt Q8N3R9: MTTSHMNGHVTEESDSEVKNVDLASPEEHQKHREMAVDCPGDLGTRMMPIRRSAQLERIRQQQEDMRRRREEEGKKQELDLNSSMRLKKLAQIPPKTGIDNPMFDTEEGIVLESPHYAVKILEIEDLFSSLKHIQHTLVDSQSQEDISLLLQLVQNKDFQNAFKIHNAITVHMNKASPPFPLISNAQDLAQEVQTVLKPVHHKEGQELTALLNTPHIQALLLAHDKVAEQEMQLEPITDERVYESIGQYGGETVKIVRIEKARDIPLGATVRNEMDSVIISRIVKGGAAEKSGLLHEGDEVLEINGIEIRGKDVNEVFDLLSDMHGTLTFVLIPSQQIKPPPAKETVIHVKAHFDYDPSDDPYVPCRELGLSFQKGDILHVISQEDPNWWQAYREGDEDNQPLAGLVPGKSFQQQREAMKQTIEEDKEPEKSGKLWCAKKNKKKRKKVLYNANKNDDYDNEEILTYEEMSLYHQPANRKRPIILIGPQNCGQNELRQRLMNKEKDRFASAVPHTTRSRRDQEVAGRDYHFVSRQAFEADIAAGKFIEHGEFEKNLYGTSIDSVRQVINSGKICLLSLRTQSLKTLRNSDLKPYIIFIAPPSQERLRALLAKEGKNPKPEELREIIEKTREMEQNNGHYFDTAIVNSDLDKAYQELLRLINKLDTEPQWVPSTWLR
UniProt Q7Z6M3: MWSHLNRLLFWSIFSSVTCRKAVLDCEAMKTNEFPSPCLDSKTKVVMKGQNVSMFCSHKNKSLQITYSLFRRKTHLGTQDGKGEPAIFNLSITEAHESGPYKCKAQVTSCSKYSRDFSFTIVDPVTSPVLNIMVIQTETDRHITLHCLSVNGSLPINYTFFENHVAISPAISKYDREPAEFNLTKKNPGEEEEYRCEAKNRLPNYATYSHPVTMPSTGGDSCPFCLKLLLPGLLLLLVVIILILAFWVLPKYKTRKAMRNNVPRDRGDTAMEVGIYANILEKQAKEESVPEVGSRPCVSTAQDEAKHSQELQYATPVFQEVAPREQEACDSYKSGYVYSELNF
UniProt Q8TD10: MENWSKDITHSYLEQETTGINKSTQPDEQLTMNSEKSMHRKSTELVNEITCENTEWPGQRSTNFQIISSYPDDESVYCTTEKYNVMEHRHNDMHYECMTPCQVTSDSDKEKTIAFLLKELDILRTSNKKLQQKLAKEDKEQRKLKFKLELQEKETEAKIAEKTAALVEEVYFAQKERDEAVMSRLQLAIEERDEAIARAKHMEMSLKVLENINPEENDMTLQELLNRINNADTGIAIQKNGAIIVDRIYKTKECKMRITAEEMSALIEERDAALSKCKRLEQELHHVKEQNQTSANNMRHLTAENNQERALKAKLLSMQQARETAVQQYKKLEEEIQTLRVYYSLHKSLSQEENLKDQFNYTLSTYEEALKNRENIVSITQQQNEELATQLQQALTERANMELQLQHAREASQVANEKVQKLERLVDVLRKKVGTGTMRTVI
UniProt Q8NBR6: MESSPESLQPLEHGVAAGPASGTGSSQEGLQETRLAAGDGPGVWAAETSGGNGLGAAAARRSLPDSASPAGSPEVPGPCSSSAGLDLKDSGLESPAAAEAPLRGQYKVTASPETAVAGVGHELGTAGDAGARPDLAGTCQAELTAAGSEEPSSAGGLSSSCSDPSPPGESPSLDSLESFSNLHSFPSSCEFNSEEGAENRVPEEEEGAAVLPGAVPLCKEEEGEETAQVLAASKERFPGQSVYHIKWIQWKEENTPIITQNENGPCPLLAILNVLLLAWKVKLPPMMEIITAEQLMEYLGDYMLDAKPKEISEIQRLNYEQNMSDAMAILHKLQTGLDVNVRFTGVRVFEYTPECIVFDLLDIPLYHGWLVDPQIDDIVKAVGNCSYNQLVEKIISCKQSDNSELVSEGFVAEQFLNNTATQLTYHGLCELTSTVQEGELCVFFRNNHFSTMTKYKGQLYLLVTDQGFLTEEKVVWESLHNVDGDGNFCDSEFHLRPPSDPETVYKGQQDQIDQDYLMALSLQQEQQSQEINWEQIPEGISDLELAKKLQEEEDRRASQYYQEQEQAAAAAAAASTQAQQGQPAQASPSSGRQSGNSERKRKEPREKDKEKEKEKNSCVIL

Key:
Assay in all cases: log2 fold change, soluble protein after heating vs DMSO (PISA); higher = thermal stabilisation; K562 lysate, 10 uM; active = over 0.2 and 3.5 SD of the protein, either way, in both replicates (recomputed)
[1] = compound: C1=CC=C(C=C1)[C@H](COC2=CC3=C(C=C2)NC(=O)N3)NC(=O)C4=CC=CN(C4=O)CC5=CC(=C(C=C5)F)F
Procedure, shortened: (§1)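 Pellets of K562 cells were dounce-homogenised in PBS pH 7.4 with 1 mM MgCl2, and the crude extract was held at 1 mg/mL protein for a 30 min treatment with 10 μM compound. Aliquots were heated for 3 min over 48°C-58°C and pooled before NP-40 was added to 0.5% at 4°C. The supernatant from 21,000xg for 90 min was quantified by TMTpro 16plex LC-MS/MS with channel sums equalised. Values are reported from duplicates as log-two fold change in thermal stability relative to solvent controls.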

[2] = compound: CC1=C(SC2=C1C(=N[C@H](C3=NN=C(N32)C)CC(=O)N)C4=CC=C(C=C4)Cl)C
Procedure, shortened: as §1

[3] = compound: CC1=C2C(=CC=C1)N=C(N(C2=O)C3=CC=CC=C3C)CN4C=NC5=C(N=CN=C54)N
Procedure, shortened: as §1

[4] = compound: Cc1sc2c(c1C)C(c1ccc(Cl)cc1)=N[C@@H](CC(=O)OC(C)(C)C)c1nnc(C)n1-2
Procedure, shortened: as §1

[5] = compound: c1ccc([C@@H]2C[C@H]2NC2CCNCC2)cc1
Procedure, shortened: as §1

Measured: log2 fold change

MPST isoform 2 (UniProt P25325)
inactive: [1] -0.002 | [2] -0.012 | [3] -0.006 | [4] 0.008 | [5] -0.005

MPDU1 (UniProt O75352)
inactive: [1] -0.104 | [2] 0.037 | [3] 0.029 | [4] -0.111 | [5] -0.069

MRPL12 (UniProt P52815)
inactive: [1] -0.084 | [2] 0.015 | [3] -0.022 | [4] 0.027 | [5] 0.047

MICAL3 (UniProt Q7RTP6)
inactive: [1] 0.033 | [2] -0.007 | [3] 0.022 | [4] -0.024 | [5] -0.041

MPC1 (UniProt Q9Y5U8)
inactive: [1] -0.17 | [2] 0.148 | [3] -0.077 | [4] -0.087 | [5] 0.114

MIEF1 (UniProt L0R8F8)
inactive: [1] 0.018 | [2] -0.043 | [3] 0.005 | [4] -0.025 | [5] 0.096

MPP5 (UniProt Q8N3R9)
inactive: [1] -0.044 | [2] 0.045 | [3] -0.006 | [4] 0.029 | [5] -0.11

MILR1 (UniProt Q7Z6M3)
inactive: [3] -0.09

MIPOL1 (UniProt Q8TD10)
inactive: [1] -0.268 | [2] -0.156 | [4] -0.204 | [5] 0.067

MINDY2 (UniProt Q8NBR6)
inactive: [1] -0.129 | [2] 0.021 | [5] -0.022

2 consecutive records from above, for reference:
MIEF1 (UniProt L0R8F8)
inactive: [1] 0.018 | [2] -0.043 | [3] 0.005 | [4] -0.025 | [5] 0.096

MPP5 (UniProt Q8N3R9)
inactive: [1] -0.044 | [2] 0.045 | [3] -0.006 | [4] 0.029 | [5] -0.11
